Test results reported in the supplement of paper PMC10849652.
The list shows a part of the results.

Chains of the proteins cited; added tags and fusions are not shown. Lines headed by an entry give the natural chain unless they say otherwise; changes in a name come on top.
UniProt Q99439: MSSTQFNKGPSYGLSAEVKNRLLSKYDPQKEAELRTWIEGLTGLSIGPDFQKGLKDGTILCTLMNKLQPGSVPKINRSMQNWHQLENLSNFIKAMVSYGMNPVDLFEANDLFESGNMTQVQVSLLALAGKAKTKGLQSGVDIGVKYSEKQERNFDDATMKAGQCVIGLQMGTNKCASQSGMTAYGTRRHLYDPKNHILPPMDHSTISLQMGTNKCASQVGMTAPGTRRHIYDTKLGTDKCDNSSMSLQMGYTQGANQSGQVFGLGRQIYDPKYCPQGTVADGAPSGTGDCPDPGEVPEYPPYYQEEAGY
UniProt Q9UIV1, whole entry, looked up: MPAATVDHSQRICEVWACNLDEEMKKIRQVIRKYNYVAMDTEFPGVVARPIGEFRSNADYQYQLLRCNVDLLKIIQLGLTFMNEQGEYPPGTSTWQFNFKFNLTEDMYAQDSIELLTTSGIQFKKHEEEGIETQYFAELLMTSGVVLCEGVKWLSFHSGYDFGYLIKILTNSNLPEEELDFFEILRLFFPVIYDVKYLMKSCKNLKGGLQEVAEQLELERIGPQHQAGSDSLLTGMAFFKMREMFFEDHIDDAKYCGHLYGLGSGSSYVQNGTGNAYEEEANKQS
UniProt Q96KP4: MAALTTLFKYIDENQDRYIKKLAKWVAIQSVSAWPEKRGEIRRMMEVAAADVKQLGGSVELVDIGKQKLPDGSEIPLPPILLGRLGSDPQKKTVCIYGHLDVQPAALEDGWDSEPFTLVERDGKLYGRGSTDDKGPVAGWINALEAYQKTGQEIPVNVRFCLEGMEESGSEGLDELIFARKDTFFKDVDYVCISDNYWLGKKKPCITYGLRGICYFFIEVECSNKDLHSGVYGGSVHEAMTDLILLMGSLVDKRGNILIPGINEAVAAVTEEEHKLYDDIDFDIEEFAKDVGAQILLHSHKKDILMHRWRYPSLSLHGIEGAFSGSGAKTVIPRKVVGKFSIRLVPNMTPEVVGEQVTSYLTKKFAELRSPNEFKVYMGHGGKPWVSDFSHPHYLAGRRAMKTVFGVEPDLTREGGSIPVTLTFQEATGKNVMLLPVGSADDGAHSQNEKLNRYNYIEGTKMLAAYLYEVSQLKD
UniProt P31327: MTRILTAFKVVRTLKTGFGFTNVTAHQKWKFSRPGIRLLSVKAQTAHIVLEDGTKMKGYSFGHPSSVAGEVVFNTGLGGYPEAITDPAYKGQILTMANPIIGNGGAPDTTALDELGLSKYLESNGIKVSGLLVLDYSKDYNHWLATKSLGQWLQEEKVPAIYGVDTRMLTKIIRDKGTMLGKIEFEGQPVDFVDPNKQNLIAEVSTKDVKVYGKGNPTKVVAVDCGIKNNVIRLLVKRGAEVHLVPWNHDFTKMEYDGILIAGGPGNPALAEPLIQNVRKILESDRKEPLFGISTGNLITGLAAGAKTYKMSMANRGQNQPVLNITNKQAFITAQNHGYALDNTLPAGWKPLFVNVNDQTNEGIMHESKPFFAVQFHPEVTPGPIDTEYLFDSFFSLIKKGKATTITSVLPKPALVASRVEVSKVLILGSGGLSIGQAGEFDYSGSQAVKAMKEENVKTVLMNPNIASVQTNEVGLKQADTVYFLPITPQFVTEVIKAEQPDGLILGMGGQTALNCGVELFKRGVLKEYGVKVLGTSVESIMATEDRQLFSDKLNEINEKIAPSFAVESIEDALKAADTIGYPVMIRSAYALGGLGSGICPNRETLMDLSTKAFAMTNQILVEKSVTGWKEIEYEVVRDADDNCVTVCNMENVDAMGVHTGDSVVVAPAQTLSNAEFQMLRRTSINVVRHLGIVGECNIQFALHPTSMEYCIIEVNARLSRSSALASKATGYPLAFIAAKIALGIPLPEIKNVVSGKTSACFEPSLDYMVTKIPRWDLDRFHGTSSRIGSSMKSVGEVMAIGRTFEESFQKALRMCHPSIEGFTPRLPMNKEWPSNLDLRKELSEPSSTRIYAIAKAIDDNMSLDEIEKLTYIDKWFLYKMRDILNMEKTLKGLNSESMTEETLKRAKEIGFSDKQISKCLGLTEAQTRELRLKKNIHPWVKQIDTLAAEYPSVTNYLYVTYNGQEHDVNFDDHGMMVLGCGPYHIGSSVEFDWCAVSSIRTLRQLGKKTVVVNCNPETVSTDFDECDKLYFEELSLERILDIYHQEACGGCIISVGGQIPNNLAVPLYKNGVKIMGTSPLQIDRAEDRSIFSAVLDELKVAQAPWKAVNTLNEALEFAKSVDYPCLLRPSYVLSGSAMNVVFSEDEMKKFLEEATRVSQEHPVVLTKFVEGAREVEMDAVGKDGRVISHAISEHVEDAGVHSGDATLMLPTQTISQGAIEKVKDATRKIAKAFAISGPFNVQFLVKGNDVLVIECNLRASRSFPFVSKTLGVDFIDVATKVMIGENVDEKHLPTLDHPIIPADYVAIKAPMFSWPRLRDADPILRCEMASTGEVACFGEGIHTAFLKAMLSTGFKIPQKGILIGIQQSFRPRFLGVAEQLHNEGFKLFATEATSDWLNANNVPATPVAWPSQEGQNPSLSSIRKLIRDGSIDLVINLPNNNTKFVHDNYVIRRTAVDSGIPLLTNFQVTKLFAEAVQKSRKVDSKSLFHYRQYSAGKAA
UniProt Q8NE01: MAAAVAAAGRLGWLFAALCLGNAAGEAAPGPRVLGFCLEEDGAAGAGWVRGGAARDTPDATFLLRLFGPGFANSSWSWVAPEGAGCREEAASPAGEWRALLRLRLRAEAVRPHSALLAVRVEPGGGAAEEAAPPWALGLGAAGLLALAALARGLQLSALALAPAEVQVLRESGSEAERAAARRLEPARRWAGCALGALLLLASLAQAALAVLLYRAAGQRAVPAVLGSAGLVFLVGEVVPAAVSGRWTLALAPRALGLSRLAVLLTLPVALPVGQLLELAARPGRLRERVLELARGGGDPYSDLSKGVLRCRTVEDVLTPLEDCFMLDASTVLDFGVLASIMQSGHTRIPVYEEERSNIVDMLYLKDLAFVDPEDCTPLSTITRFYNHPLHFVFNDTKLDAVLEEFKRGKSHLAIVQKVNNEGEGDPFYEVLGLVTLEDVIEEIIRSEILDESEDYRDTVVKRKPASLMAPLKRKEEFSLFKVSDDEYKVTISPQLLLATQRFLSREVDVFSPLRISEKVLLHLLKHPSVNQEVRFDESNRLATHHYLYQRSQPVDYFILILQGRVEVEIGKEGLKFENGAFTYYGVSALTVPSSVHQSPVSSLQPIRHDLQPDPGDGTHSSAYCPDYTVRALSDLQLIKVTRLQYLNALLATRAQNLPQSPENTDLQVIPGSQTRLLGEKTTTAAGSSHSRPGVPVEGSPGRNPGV
UniProt Q96MW5: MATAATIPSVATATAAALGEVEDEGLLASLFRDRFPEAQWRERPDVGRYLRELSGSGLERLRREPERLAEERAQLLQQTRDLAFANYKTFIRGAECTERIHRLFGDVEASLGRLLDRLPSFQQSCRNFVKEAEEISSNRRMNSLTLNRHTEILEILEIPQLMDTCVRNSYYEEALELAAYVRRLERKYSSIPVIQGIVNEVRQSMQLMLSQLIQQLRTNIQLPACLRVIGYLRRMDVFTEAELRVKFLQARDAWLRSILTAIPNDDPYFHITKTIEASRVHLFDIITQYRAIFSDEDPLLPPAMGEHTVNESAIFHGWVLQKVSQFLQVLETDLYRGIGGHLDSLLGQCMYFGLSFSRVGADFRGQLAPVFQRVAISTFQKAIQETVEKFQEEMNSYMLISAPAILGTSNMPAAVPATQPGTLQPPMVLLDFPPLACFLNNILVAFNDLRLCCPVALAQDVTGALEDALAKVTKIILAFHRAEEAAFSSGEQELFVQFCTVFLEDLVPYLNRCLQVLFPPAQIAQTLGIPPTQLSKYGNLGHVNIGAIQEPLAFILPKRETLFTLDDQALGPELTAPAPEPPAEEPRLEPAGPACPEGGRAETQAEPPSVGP
UniProt Q9UNS2: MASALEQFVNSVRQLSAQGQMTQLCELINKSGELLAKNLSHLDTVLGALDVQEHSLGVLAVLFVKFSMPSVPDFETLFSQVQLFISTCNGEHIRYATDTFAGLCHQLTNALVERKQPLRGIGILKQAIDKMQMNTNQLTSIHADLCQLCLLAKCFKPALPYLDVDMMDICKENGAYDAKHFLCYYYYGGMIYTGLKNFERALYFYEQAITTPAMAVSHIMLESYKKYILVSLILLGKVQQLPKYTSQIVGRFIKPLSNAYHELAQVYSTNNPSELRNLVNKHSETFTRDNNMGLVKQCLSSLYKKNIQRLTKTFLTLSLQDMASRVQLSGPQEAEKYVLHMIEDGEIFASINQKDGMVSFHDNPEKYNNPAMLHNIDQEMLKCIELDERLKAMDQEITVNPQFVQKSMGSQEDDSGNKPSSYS
UniProt P57737: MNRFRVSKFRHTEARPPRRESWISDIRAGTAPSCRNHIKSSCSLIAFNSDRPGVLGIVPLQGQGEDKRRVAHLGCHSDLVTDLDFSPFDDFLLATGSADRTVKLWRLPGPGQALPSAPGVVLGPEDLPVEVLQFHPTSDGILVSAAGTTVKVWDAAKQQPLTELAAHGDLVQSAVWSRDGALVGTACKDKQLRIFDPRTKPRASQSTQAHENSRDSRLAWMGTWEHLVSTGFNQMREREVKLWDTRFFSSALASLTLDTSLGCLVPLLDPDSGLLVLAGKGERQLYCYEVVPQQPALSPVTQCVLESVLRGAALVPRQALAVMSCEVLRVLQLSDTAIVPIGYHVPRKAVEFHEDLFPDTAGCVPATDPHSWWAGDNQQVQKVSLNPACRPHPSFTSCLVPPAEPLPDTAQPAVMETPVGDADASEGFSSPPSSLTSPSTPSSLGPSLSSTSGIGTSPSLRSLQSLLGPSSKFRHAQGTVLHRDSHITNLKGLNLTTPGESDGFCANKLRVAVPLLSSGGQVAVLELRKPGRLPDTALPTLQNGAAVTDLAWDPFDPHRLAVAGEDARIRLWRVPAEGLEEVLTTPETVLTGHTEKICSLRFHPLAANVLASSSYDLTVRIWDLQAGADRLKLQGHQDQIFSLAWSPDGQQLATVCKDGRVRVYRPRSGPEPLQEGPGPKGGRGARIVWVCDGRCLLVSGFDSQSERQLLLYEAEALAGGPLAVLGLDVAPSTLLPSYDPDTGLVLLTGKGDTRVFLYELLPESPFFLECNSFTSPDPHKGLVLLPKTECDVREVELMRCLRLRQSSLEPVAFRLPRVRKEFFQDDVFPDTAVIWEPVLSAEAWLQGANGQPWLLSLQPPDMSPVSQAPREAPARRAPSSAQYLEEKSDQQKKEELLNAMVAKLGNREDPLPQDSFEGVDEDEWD
UniProt Q8N684: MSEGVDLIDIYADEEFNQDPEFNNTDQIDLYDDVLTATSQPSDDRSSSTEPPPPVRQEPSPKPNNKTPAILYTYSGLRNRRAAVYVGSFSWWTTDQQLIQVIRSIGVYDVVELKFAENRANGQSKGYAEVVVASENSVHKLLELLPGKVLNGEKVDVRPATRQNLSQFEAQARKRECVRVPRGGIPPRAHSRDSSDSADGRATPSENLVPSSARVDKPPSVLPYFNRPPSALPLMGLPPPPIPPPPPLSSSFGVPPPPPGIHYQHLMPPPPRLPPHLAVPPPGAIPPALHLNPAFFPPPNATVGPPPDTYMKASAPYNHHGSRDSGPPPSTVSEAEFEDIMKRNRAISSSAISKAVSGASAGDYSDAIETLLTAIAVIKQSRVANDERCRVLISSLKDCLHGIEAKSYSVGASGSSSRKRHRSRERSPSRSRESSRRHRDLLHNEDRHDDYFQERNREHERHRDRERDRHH
UniProt Q9BRF8, whole entry, looked up: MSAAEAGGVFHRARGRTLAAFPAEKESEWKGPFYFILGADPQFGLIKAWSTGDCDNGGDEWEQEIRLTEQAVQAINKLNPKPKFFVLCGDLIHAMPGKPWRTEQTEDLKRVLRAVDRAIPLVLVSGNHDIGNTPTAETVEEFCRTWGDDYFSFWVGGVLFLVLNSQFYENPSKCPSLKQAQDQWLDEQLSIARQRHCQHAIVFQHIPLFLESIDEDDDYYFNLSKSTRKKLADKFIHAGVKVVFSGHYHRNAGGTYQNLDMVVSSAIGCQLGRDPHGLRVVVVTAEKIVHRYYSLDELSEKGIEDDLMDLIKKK
UniProt O75208: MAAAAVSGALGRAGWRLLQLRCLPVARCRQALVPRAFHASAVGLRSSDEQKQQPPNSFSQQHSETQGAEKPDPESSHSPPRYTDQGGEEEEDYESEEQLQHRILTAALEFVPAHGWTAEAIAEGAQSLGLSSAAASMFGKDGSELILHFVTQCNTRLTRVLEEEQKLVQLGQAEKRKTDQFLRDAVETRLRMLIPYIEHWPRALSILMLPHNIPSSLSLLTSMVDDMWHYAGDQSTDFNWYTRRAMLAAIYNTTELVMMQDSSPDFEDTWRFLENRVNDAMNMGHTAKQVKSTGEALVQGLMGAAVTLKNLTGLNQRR
UniProt Q9NYJ1, whole entry, looked up: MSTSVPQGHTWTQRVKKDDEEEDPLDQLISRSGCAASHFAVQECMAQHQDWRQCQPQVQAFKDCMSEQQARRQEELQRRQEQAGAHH

Columns and labels:
Assay in all cases: log2 fold change, soluble protein after heating vs DMSO (PISA); higher = thermal stabilisation; K562 lysate, 10 uM; active = over 0.2 and 3.5 SD of the protein, either way, in both replicates (recomputed)
[1] = compound: CS(=O)(=O)CCNCc1ccc(-c2ccc3ncnc(Nc4ccc(OCc5cccc(F)c5)c(Cl)c4)c3c2)o1 [lapatinib]
How it was run: (§1)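 Thermal stability, expressed as log-two fold change relative to solvent controls, is given from duplicates. Crude K562 extract in PBS pH 7.4 with 1 mM MgCl2, at 1 mg/mL protein, was treated with 10 μM compound for 30 min and heated in aliquots for 3 min across 48°C-58°C. After pooling, adjustment to 0.5% NP-40 at 4°C and centrifugation at 21,000xg for 90 min, supernatant protein was measured by TMTpro 16plex LC-MS/MS with channel sums equalised.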

[2] = compound: CS(=O)(=O)N1CCN(Cc2cc3nc(-c4cccc5[nH]ncc45)nc(N4CCOCC4)c3s2)CC1 [pictilisib]
How it was run: as §1

[3] = compound: C[C@@H](Oc1cc(-c2cnn(C3CCNCC3)c2)cnc1N)c1c(Cl)ccc(F)c1Cl [crizotinib]
How it was run: as §1

[4] = compound: C[C@H](C1=CC=C(C=C1)C(=O)NC2=C3C=CNC3=NC=C2)N
How it was run: as §1

[5] = compound: C[C@H](Nc1ncnc2nc[nH]c12)c1cc2cccc(Cl)c2c(=O)n1-c1ccccc1 [duvelisib]
How it was run: as §1

[6] = compound: Cc1cc(Nc2cc(CN3CCOCC3)c3nc(C)c(Cc4ccc(Cl)cc4F)n3n2)n[nH]1 [gandotinib]
How it was run: as §1

[7] = compound: Cc1cc(Nc2cc(N3CCN(C)CC3)nc(Sc3ccc(NC(=O)C4CC4)cc3)n2)n[nH]1 [tozasertib]
How it was run: as §1

[8] = compound: Cc1ccc(-n2nc(C(C)(C)C)cc2NC(=O)Nc2ccc(OCCN3CCOCC3)c3ccccc23)cc1 [doramapimod]
How it was run: as §1

[9] = compound: Cc1ccc(NC(=O)c2ccc(CN3CC[C@H](N(C)C)C3)c(C(F)(F)F)c2)cc1Nc1nccc(-c2cncnc2)n1 [bafetinib]
How it was run: as §1

[10] = compound: Cc1cccc(CC(=O)N2CCc3c2ccc(-c2cn(C)c4ncnc(N)c24)c3F)n1
How it was run: as §1

[11] = compound: Cc1cn(-c2cc(NC(=O)c3ccc(C)c(Nc4nccc(-c5cccnc5)n4)c3)cc(C(F)(F)F)c2)cn1 [nilotinib]
How it was run: as §1

[12] = compound: Cc1nc(Nc2n[nH]c3c2CN(C(=O)N[C@H](CN(C)C)c2ccccc2)C3(C)C)c2sccc2n1
How it was run: as §1

[13] = compound: Cc1nc(Nc2ncc(C(=O)Nc3c(C)cccc3Cl)s2)cc(N2CCN(CCO)CC2)n1 [dasatinib]
How it was run: as §1

[14] = compound: Cc1ncc(-c2ccnc(Nc3ccc(S(C)(=O)=O)cc3)n2)n1C(C)C
How it was run: as §1

[15] = compound: Cn1cc(-c2ccc3c(c2)CCN3C(=O)Cc2cccc(C(F)(F)F)c2)c2c(N)ncnc21
How it was run: as §1

[16] = compound: Cn1cc(CNCC2CCN(c3ncc(C(=O)NO)cn3)CC2)c2ccccc21 [quisinostat]
How it was run: as §1

[17] = compound: Cn1cncc1[C@@](N)(c1ccc(Cl)cc1)c1ccc2c(c1)c(-c1cccc(Cl)c1)cc(=O)n2C [tipifarnib]
How it was run: as §1

[18] = compound: NC(=O)Nc1cc(-c2cccc(F)c2)sc1C(=O)N[C@H]1CCCNC1
How it was run: as §1

[19] = compound: NC(=O)c1cnc(N[C@@H]2CCCC[C@@H]2N)nc1Nc1cccc(-n2nccn2)c1
How it was run: as §1

[20] = compound: NC1(c2ccc(-c3nc4ccn5c(=O)[nH]nc5c4cc3-c3ccccc3)cc2)CCC1
How it was run: as §1

Row | Target | log2 fold change [1] | log2 fold change [2] | log2 fold change [3] | log2 fold change [4] | log2 fold change [5] | log2 fold change [6] | log2 fold change [7] | log2 fold change [8] | log2 fold change [9] | log2 fold change [10] | log2 fold change [11] | log2 fold change [12] | log2 fold change [13] | log2 fold change [14] | log2 fold change [15] | log2 fold change [16] | log2 fold change [17] | log2 fold change [18] | log2 fold change [19] | log2 fold change [20]
1 | COMMD2 (UniProt Q86X83) | inactive: 0 | inactive: -0.059 | inactive: 0.014 | inactive: 0.02 | inactive: -0.029 | inactive: -0.142 | inactive: -0.002 | inactive: -0.007 | inactive: 0.007 | inactive: -0.032 | inactive: 0.13 | inactive: 0.049 | inactive: -0.016 | inactive: -0.007 | inactive: 0.025 | inactive: 0.029 | inactive: 0.064 | inactive: 0.03 | inactive: -0.034 | inactive: 0.055
2 | CNN2 (UniProt Q99439) | inactive: 0.009 | inactive: 0.005 | inactive: 0.045 | inactive: -0.027 | inactive: -0.011 | inactive: 0.029 | inactive: 0.025 | inactive: 0.03 | inactive: 0.047 | inactive: 0.016 | inactive: -0.017 | inactive: 0.007 | inactive: -0.031 | inactive: -0.009 | inactive: -0.045 | inactive: -0.013 | inactive: -0.003 | inactive: -0.034 | inactive: -0.007 | inactive: 0.017
3 | CNOT7 (UniProt Q9UIV1) | inactive: 0.003 | inactive: -0.031 | inactive: 0.002 | inactive: -0.017 | inactive: 0.044 | inactive: -0.084 | inactive: -0.018 | inactive: 0.025 | inactive: -0.009 | inactive: 0.012 | inactive: 0.001 | inactive: -0.009 | inactive: -0.005 | inactive: 0.009 | inactive: 0.024 | inactive: 0.008 | inactive: -0.045 | inactive: 0.013 | inactive: 0.014 | inactive: 0.002
4 | CNDP2 (UniProt Q96KP4) | inactive: -0.021 | inactive: -0.017 | inactive: -0.008 | active: -0.255 | inactive: 0.037 | active: 0.244 | inactive: -0.062 | inactive: 0.001 | inactive: -0.002 | inactive: 0.212 | inactive: 0.039 | inactive: -0.023 | inactive: 0.017 | inactive: 0.051 | inactive: -0.05 | inactive: -0.074 | inactive: -0.008 | inactive: 0.004 | inactive: 0.013 | inactive: -0.003
5 | CPS1 isoform 3 (UniProt P31327) | inactive: -0.021 | inactive: -0.003 | inactive: -0.071 | inactive: -0.028 | inactive: -0.077 | inactive: 0.102 | inactive: -0.003 | inactive: -0.062 | inactive: -0.028 | inactive: 0.099 | inactive: 0.156 | inactive: -0.006 | inactive: 0.092 | inactive: 0.019 | inactive: -0.046 | inactive: -0.285 | inactive: 0.052 | inactive: 0.065 | inactive: 0.194 | inactive: 0.077
6 | COG6 (UniProt Q9Y2V7) | inactive: 0.012 | inactive: -0.019 | inactive: -0.104 | inactive: -0.137 | inactive: 0.014 | inactive: -0.115 | inactive: -0.011 | inactive: 0.037 | inactive: -0.071 | inactive: 0.142 | inactive: 0.004 | inactive: 0.038 | inactive: -0.085 | inactive: -0.041 | inactive: -0.005 | inactive: -0.068 | inactive: -0.045 | inactive: -0.016 | inactive: -0.008 | inactive: -0.06
7 | CNNM3 (UniProt Q8NE01) | inactive: 0.003 | inactive: -0.036 | inactive: -0.056 | inactive: -0.039 | inactive: -0.013 | inactive: -0.046 | inactive: -0.028 | inactive: 0.043 | inactive: -0.025 | inactive: 0.085 | inactive: 0.001 | inactive: -0.034 | inactive: -0.001 | inactive: -0.013 | inactive: -0.012 | inactive: -0.02 | inactive: -0.061 | inactive: 0.037 | inactive: 0.037 | inactive: -0.035
8 | COG8 (UniProt Q96MW5) | inactive: 0.032 | inactive: 0.012 | inactive: -0.096 | inactive: 0.041 | inactive: -0.115 | inactive: -0.193 | inactive: 0.053 | inactive: 0.019 | inactive: -0.021 | inactive: 0.064 | inactive: 0.014 | inactive: 0.046 | inactive: -0.091 | inactive: -0.05 | inactive: 0.106 | inactive: 0 | inactive: -0.008 | inactive: 0.037 | inactive: -0.129 | inactive: -0.01
9 | CPSF1 (UniProt Q10570) | inactive: 0.021 | inactive: -0.036 | inactive: 0.001 | inactive: -0.046 | inactive: -0.004 | inactive: 0.031 | inactive: -0.007 | inactive: -0.005 | inactive: -0.01 | inactive: 0.027 | inactive: 0.019 | inactive: 0.024 | inactive: -0.012 | inactive: 0.032 | inactive: 0.002 | inactive: 0.004 | inactive: -0.045 | inactive: 0.009 | inactive: 0.01 | inactive: 0.012
10 | COPS3 (UniProt Q9UNS2) | inactive: -0.017 | inactive: 0.005 | inactive: 0.004 | inactive: -0.053 | inactive: -0.005 | inactive: 0.037 | inactive: -0.015 | inactive: -0.007 | inactive: 0.008 | inactive: 0.038 | inactive: -0.019 | inactive: 0.014 | inactive: 0.016 | inactive: 0.01 | inactive: -0.045 | inactive: -0.045 | inactive: 0.005 | inactive: 0.026 | inactive: -0.01 | inactive: -0.027
11 | CNOT6L (UniProt Q96LI5) | inactive: -0.03 | inactive: -0.042 | inactive: -0.076 | inactive: -0.251 | inactive: -0.001 | inactive: 0.065 | inactive: 0.064 | inactive: 0.012 | inactive: -0.1 | inactive: 0.114 | inactive: -0.026 | inactive: 0.016 | inactive: -0.053 | inactive: 0.001 | inactive: 0.01 | inactive: -0.054 | inactive: -0.047 | inactive: 0.055 | inactive: -0.024 | inactive: 0.003
12 | CORO7 isoform 3 (UniProt P57737) | inactive: 0.009 | inactive: -0.016 | inactive: -0.063 | inactive: 0.06 | inactive: 0.004 | inactive: -0.119 | inactive: 0.005 | inactive: 0.013 | inactive: 0.001 | inactive: -0.067 | inactive: -0.006 | inactive: 0.003 | inactive: -0.032 | inactive: 0.01 | inactive: 0.019 | inactive: -0.026 | inactive: 0.005 | inactive: 0.012 | inactive: -0.016 | inactive: -0.013
13 | CPSF7 isoform 3 (UniProt Q8N684) | inactive: -0.01 | inactive: -0.024 | inactive: 0.012 | inactive: -0.058 | inactive: -0.029 | inactive: -0.059 | inactive: -0.018 | inactive: 0.015 | inactive: -0.024 | inactive: 0.005 | inactive: -0.009 | inactive: -0.008 | inactive: -0.056 | inactive: -0.056 | inactive: 0.013 | inactive: 0.018 | inactive: 0.011 | inactive: -0.028 | inactive: 0.01 | inactive: 0.032
14 | CPPED1 (UniProt Q9BRF8) | inactive: -0.019 | inactive: -0.001 | inactive: -0.011 | inactive: -0.169 | inactive: 0.037 | inactive: 0.074 | inactive: 0.021 | inactive: 0.048 | inactive: -0.031 | inactive: 0.101 | inactive: -0.035 | inactive: 0.044 | inactive: -0.047 | inactive: -0.032 | inactive: -0.016 | inactive: -0.091 | inactive: 0.021 | inactive: -0.021 | inactive: -0.001 | inactive: 0.001
15 | COQ9 (UniProt O75208) | inactive: -0.033 | inactive: -0.021 | inactive: 0.014 | inactive: 0.055 | inactive: -0.052 | inactive: -0.12 | inactive: 0.02 | inactive: -0.055 | inactive: 0.032 | inactive: 0.019 | inactive: 0.021 | inactive: 0.03 | inactive: -0.021 | inactive: 0 | inactive: -0.007 | inactive: 0.036 | inactive: -0.016 | inactive: 0 | inactive: 0.002 | inactive: -0.018
16 | COA4 isoform 2 (UniProt Q9NYJ1) | inactive: 0.133 | inactive: 0.03 | inactive: 0.103 | inactive: 0.177 | inactive: 0.046 | inactive: -0.186 | inactive: -0.04 | inactive: -0.092 | inactive: 0.028 | inactive: -0.192 | inactive: -0.01 | inactive: 0.054 | inactive: 0.012 | inactive: 0.103 | inactive: -0.017 | inactive: -0.077 | inactive: 0.087 | inactive: -0.038 | inactive: -0.016 | inactive: -0.026

A stretch of the results above, for reference:
Row | Target | log2 fold change [1] | log2 fold change [2] | log2 fold change [3] | log2 fold change [4] | log2 fold change [5] | log2 fold change [6] | log2 fold change [7] | log2 fold change [8] | log2 fold change [9] | log2 fold change [10] | log2 fold change [11] | log2 fold change [12] | log2 fold change [13] | log2 fold change [14] | log2 fold change [15] | log2 fold change [16] | log2 fold change [17] | log2 fold change [18] | log2 fold change [19] | log2 fold change [20]
4 | CNDP2 (UniProt Q96KP4) | inactive: -0.021 | inactive: -0.017 | inactive: -0.008 | active: -0.255 | inactive: 0.037 | active: 0.244 | inactive: -0.062 | inactive: 0.001 | inactive: -0.002 | inactive: 0.212 | inactive: 0.039 | inactive: -0.023 | inactive: 0.017 | inactive: 0.051 | inactive: -0.05 | inactive: -0.074 | inactive: -0.008 | inactive: 0.004 | inactive: 0.013 | inactive: -0.003
5 | CPS1 isoform 3 (UniProt P31327) | inactive: -0.021 | inactive: -0.003 | inactive: -0.071 | inactive: -0.028 | inactive: -0.077 | inactive: 0.102 | inactive: -0.003 | inactive: -0.062 | inactive: -0.028 | inactive: 0.099 | inactive: 0.156 | inactive: -0.006 | inactive: 0.092 | inactive: 0.019 | inactive: -0.046 | inactive: -0.285 | inactive: 0.052 | inactive: 0.065 | inactive: 0.194 | inactive: 0.077
6 | COG6 (UniProt Q9Y2V7) | inactive: 0.012 | inactive: -0.019 | inactive: -0.104 | inactive: -0.137 | inactive: 0.014 | inactive: -0.115 | inactive: -0.011 | inactive: 0.037 | inactive: -0.071 | inactive: 0.142 | inactive: 0.004 | inactive: 0.038 | inactive: -0.085 | inactive: -0.041 | inactive: -0.005 | inactive: -0.068 | inactive: -0.045 | inactive: -0.016 | inactive: -0.008 | inactive: -0.06
